PubChem BioAssay AID1159584, Peter MacCallum Cancer Centre | 2016
The deposit covers about 18,000 reagents; shown is a part drawn at random. Not all columns of the deposit are shown. Not given: the amount of reagent, the time to read-out.

Purpose: 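Genes that CDH1-null MCF10A cells selectively depend on to survive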 (primary screen)
System: human MCF10A breast epithelial cells, parental and CDH1-null
Reagents: siRNA against human genes
Detection: 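ATP luminescence (CellTiter-Glo) viability per line relative to mean mock wells over all plates, and the ratio of CDH1-null to parental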
Scale: CDH1-null / parental viability ratio: higher = CDH1-null cells survive relatively better than parental; CDH1-null viability vs mock: higher = more viable CDH1-null cells

HEATR4 (HEAT repeat containing 4) [SID134326915]: CDH1-null / parental viability ratio = 0.84; CDH1-null viability vs mock (fraction of mock) = 0.72
LRIT1 (leucine rich repeat, Ig-like and transmembrane domains 1) [SID152152253]: CDH1-null / parental viability ratio = 1.13; CDH1-null viability vs mock (fraction of mock) = 0.94
CCBE1 (collagen and calcium binding EGF domains 1) [SID134325727]: CDH1-null / parental viability ratio = 1.03; CDH1-null viability vs mock (fraction of mock) = 0.38
ZNF557 (zinc finger protein 557) [SID152147264]: CDH1-null / parental viability ratio = 1.11; CDH1-null viability vs mock (fraction of mock) = 1.02
PARP12 (poly(ADP-ribose) polymerase family member 12) [SID152148031]: CDH1-null / parental viability ratio = 1; CDH1-null viability vs mock (fraction of mock) = 0.9
PTGER2 (prostaglandin E receptor 2) [SID134311143]: CDH1-null / parental viability ratio = 0.69; CDH1-null viability vs mock (fraction of mock) = 0.74
CLEC12A (C-type lectin domain family 12 member A) [SID152149320]: CDH1-null / parental viability ratio = 0.99; CDH1-null viability vs mock (fraction of mock) = 1
CPNE9 (copine family member 9) [SID152147791]: CDH1-null / parental viability ratio = 1; CDH1-null viability vs mock (fraction of mock) = 1
SNX8 (sorting nexin 8) [SID134318372]: CDH1-null / parental viability ratio = 1.03; CDH1-null viability vs mock (fraction of mock) = 0.62
CAVIN4 (caveolae associated protein 4) [SID135624543]: CDH1-null / parental viability ratio = 1.1; CDH1-null viability vs mock (fraction of mock) = 0.98
PMEL (premelanosome protein) [SID134317022]: CDH1-null / parental viability ratio = 1.04; CDH1-null viability vs mock (fraction of mock) = 0.84
TMEM38B (transmembrane protein 38B) [SID135624135]: CDH1-null / parental viability ratio = 1.09; CDH1-null viability vs mock (fraction of mock) = 0.86
CARTPT (CART prepropeptide) [SID134323648]: CDH1-null / parental viability ratio = 1; CDH1-null viability vs mock (fraction of mock) = 0.42
SKAP1 (src kinase associated phosphoprotein 1) [SID152154182]: CDH1-null / parental viability ratio = 1; CDH1-null viability vs mock (fraction of mock) = 0.9
PKHD1 (PKHD1 ciliary IPT domain containing fibrocystin/polyductin) [SID152150293]: CDH1-null / parental viability ratio = 0.84; CDH1-null viability vs mock (fraction of mock) = 0.78
DNAJA4 (DnaJ heat shock protein family (Hsp40) member A4) [SID134323186]: CDH1-null / parental viability ratio = 1.08; CDH1-null viability vs mock (fraction of mock) = 0.96
OR6A2 (olfactory receptor family 6 subfamily A member 2) [SID135621712]: CDH1-null / parental viability ratio = 0.8; CDH1-null viability vs mock (fraction of mock) = 0.7
CD69 (CD69 molecule) [SID134311752]: CDH1-null / parental viability ratio = 0.88; CDH1-null viability vs mock (fraction of mock) = 0.8
MRPL51 (mitochondrial ribosomal protein L51) [SID134317783]: CDH1-null / parental viability ratio = 1.04; CDH1-null viability vs mock (fraction of mock) = 0.73
YJU2B (YJU2 splicing factor homolog B) [SID134318778]: CDH1-null / parental viability ratio = 1.26; CDH1-null viability vs mock (fraction of mock) = 0.78
STIM1 (stromal interaction molecule 1) [SID134316103]: CDH1-null / parental viability ratio = 1.1; CDH1-null viability vs mock (fraction of mock) = 0.99
CRYGD (crystallin gamma D) [SID152154975]: CDH1-null / parental viability ratio = 0.98; CDH1-null viability vs mock (fraction of mock) = 0.9
TRMT6 (tRNA methyltransferase 6 non-catalytic subunit) [SID134321264]: CDH1-null / parental viability ratio = 1; CDH1-null viability vs mock (fraction of mock) = 0.84
LRCH3 [SID134319060]: CDH1-null / parental viability ratio = 0.91; CDH1-null viability vs mock (fraction of mock) = 0.42
HTR5A (5-hydroxytryptamine receptor 5A) [SID135621038]: CDH1-null / parental viability ratio = 0.85; CDH1-null viability vs mock (fraction of mock) = 0.87
LLGL2 (LLGL scribble cell polarity complex component 2) [SID134323575]: CDH1-null / parental viability ratio = 1.04; CDH1-null viability vs mock (fraction of mock) = 0.76
IFTAP (intraflagellar transport associated protein) [SID134320560]: CDH1-null / parental viability ratio = 0.73; CDH1-null viability vs mock (fraction of mock) = 0.64
CNN3 (calponin 3) [SID134315939]: CDH1-null / parental viability ratio = 1.12; CDH1-null viability vs mock (fraction of mock) = 0.86
ANO1 (anoctamin 1) [SID134326798]: CDH1-null / parental viability ratio = 0.71; CDH1-null viability vs mock (fraction of mock) = 0.7
CFAP300 (cilia and flagella associated protein 300) [SID134319111]: CDH1-null / parental viability ratio = 0.99; CDH1-null viability vs mock (fraction of mock) = 0.7
TMEM243 (transmembrane protein 243) [SID134310294]: CDH1-null / parental viability ratio = 0.86; CDH1-null viability vs mock (fraction of mock) = 0.66
GAPVD1 (GTPase activating protein and VPS9 domains 1) [SID135624541]: CDH1-null / parental viability ratio = 0.86; CDH1-null viability vs mock (fraction of mock) = 0.76
SF3A1 (splicing factor 3a subunit 1) [SID152153214]: CDH1-null / parental viability ratio = 1.17; CDH1-null viability vs mock (fraction of mock) = 0.34
PIGX (phosphatidylinositol glycan anchor biosynthesis class X) [SID152147565]: CDH1-null / parental viability ratio = 1.77; CDH1-null viability vs mock (fraction of mock) = 0.55
MCM3AP [SID134321316]: CDH1-null / parental viability ratio = 0.84; CDH1-null viability vs mock (fraction of mock) = 0.48
ARHGAP26 (Rho GTPase activating protein 26) [SID152152855]: CDH1-null / parental viability ratio = 1.24; CDH1-null viability vs mock (fraction of mock) = 0.62
NDUFA10 (NADH:ubiquinone oxidoreductase subunit A10) [SID134311971]: CDH1-null / parental viability ratio = 0.71; CDH1-null viability vs mock (fraction of mock) = 0.75
DYNAP (dynactin associated protein) [SID135623480]: CDH1-null / parental viability ratio = 1.25; CDH1-null viability vs mock (fraction of mock) = 0.96
CYTH4 (cytohesin 4) [SID134317900]: CDH1-null / parental viability ratio = 0.73; CDH1-null viability vs mock (fraction of mock) = 0.66
EIF2AK1 (eukaryotic translation initiation factor 2 alpha kinase 1) [SID56478942]: CDH1-null / parental viability ratio = 1.04; CDH1-null viability vs mock (fraction of mock) = 0.98
MOB2 (MOB kinase activator 2) [SID152147257]: CDH1-null / parental viability ratio = 1.21; CDH1-null viability vs mock (fraction of mock) = 0.88
TRDN (triadin) [SID152148430]: CDH1-null / parental viability ratio = 1.25; CDH1-null viability vs mock (fraction of mock) = 0.7
OR14A16 (olfactory receptor family 14 subfamily A member 16) [SID134329808]: CDH1-null / parental viability ratio = 0.87; CDH1-null viability vs mock (fraction of mock) = 0.8
TRIM38 (tripartite motif containing 38) [SID135621271]: CDH1-null / parental viability ratio = 0.96; CDH1-null viability vs mock (fraction of mock) = 0.48
BAGE4 (BAGE family member 4) [SID135623554]: CDH1-null / parental viability ratio = 1.11; CDH1-null viability vs mock (fraction of mock) = 0.91
